From publication PMC12587161, “Chidamide (a Histone Deacetylase Inhibitor) Plus Abiraterone in Metastatic Castration‐Resistant Prostate Cancer (mCRPC): A Phase Ib Trial” (MedComm, 2025)

Test system: C4-2 cells
Assay: RNA-seq and GSEA of treated CRPC cells
Assay type: cell-based
Conditions: chidamide 0.5 µM, DHT 10 nM as control

Nc1cc(F)ccc1NC(=O)c1ccc(CNC(=O)/C=C/c2cccnc2)cc1 [chidamide, Chidamide]
Genes downregulated (RNA-seq): 142 genes
Genes upregulated (RNA-seq): 29 genes
Pathways enriched (GSEA): IFN‐α and IFN‐γ responses, allograft rejection and apoptosis‐related pathways were enriched
